Results are given in words; binding and its absence hold for the method and conditions named. Binding seen in cells or lysates may run through a third protein.

The assay has as its target YAP1 (human (endogenous in MKN28 and AGS)), P46937. Put plainly: co-IP; endogenous proteins from MKN28 and AGS lysates; protein A/G magnetic beads pre-incubated with anti-YAP1 or anti-snail1 antibody at 4 °C, washed three times with extraction buffer, western blot; also done after sh-CLDN6 knock-down (YAP1-snail1 interaction became weak). The conditions noted are these: remark: other sources report otherwise.

B1: zeb1, P37275 1-1124 (protein)
chain: MADGPRCKRRKQANPRRNNVTNYNTVVETNSDSDDEDKLHIVEEESVTDAADCEGVPEDDLPTDQTVLPGRSSEREGNAKNCWEDDRKEGQEILGPEAQADEAGCTVKDDECESDAENEQNHDPNVEEFLQQQDTAVIFPEAPEEDQRQGTPEASGHDENGTPDAFSQLLTCPYCDRGYKRFTSLKEHIKYRHEKNEDNFSCSLCSYTFAYRTQLERHMTSHKSGRDQRHVTQSGCNRKFKCTECGKAFKYKHHLKEHLRIHSGEKPYECPNCKKRFSHSGSYSSHISSKKCISLIPVNGRPRTGLKTSQCSSPSLSASPGSPTRPQIRQKIENKPLQEQLSVNQIKTEPVDYEFKPIVVASGINCSTPLQNGVFTGGGPLQATSSPQGMVQAVVLPTVGLVSPISINLSDIQNVLKVAVDGNVIRQVLENNQANLASKEQETINASPIQQGGHSVISAISLPLVDQDGTTKIIINYSLEQPSQLQVVPQNLKKENPVATNSCKSEKLPEDLTVKSEKDKSFEGGVNDSTCLLCDDCPGDINALPELKHYDLKQPTQPPPLPAAEAEKPESSVSSATGDGNLSPSQPPLKNLLSLLKAYYALNAQPSAEELSKIADSVNLPLDVVKKWFEKMQAGQISVQSSEPSSPEPGKVNIPAKNNDQPQSANANEPQDSTVNLQSPLKMTNSPVLPVGSTTNGSRSSTPSPSPLNLSSSRNTQGYLYTAEGAQEEPQVEPLDLSLPKQQGELLERSTITSVYQNSVYSVQEEPLNLSCAKKEPQKDSCVTDSEPVVNVIPPSANPINIAIPTVTAQLPTIVAIADQNSVPCLRALAANKQTILIPQVAYTYSTTVSPAVQEPPLKVIQPNGNQDERQDTSSEGVSNVEDQNDSDSTPPKKKMRKTENGMYACDLCDKIFQKSSSLLRHKYEHTGKRPHECGICKKAFKHKHHLIEHMRLHSGEKPYQCDKCGKRFSHSGSYSQHMNHRYSYCKREAEERDSTEQEEAGPEILSNEHVGARASPSQGDSDERESLTREEDEDSEKEEEEEDKEMEELQEEKECEKPQGDEEEEEEEEEVEEEEVEEAENEGEEAKTEGLMKDDRAESQASSLGQKVGESSEQVSEEKTNEA
Regarding B1, the binding entry was “no binding”.

The values are drawn from publication PMC6906326.
